# Results are given in words; binding and its absence hold for the method and conditions named. Binding seen in cells or lysates may run through a third protein. These calls come from enrichment with a bait or labelling near it, and not all partners need be listed.
# B1: NLRP12 (endogenous, HeLa) (protein, UniProt P59046 1-1061)
# chain: MLRTAGRDGLCRLSTYLEELEAVELKKFKLYLGTATELGEGKIPWGSMEKAGPLEMAQLLITHFGPEEAWRLALSTFERINRKDLWERGQREDLVRDTPPGGPSSLGNQSTCLLEVSLVTPRKDPQETYRDYVRRKFRLMEDRNARLGECVNLSHRYTRLLLVKEHSNPMQVQQQLLDTGRGHARTVGHQASPIKIETLFEPDEERPEPPRTVVMQGAAGIGKSMLAHKVMLDWADGKLFQGRFDYLFYINCREMNQSATECSMQDLIFSCWPEPSAPLQELIRVPERLLFIIDGFDELKPSFHDPQGPWCLCWEEKRPTELLLNSLIRKKLLPELSLLITTRPTALEKLHRLLEHPRHVEILGFSEAERKEYFYKYFHNAEQAGQVFNYVRDNEPLFTMCFVPLVCWVVCTCLQQQLEGGGLLRQTSRTTTAVYMLYLLSLMQPKPGAPRLQPPPNQRGLCSLAADGLWNQKILFEEQDLRKHGLDGEDVSAFLNMNIFQKDINCERYYSFIHLSFQEFFAAMYYILDEGEGGAGPDQDVTRLLTEYAFSERSFLALTSRFLFGLLNEETRSHLEKSLCWKVSPHIKMDLLQWIQSKAQSDGSTLQQGSLEFFSCLYEIQEEEFIQQALSHFQVIVVSNIASKMEHMVSSFCLKRCRSAQVLHLYGATYSADGEDRARCSAGAHTLLVQLPERTVLLDAYSEHLAAALCTNPNLIELSLYRNALGSRGVKLLCQGLRHPNCKLQNLRLKRCRISSSACEDLSAALIANKNLTRMDLSGNGVGFPGMMLLCEGLRHPQCRLQMIQLRKCQLESGACQEMASVLGTNPHLVELDLTGNALEDLGLRLLCQGLRHPVCRLRTLWLKICRLTAAACDELASTLSVNQSLRELDLSLNELGDLGVLLLCEGLRHPTCKLQTLRLGICRLGSAACEGLSVVLQANHNLRELDLSFNDLGDWGLWLLAEGLQHPACRLQKLWLDSCGLTAKACENLYFTLGINQTLTDLYLTNNALGDTGVRLLCKRLSHPGCKLRVLWLFGMDLNKMTHSRLAALRVTKPYLDIGC
# Target: APOL1-B3-FLAG (wild type, G0) (human)
# Test: affinity purification with mass spectrometry; proteins coprecipitated with APOL1-B3-FLAG from APOL1-B3-FLAG stably transfected HeLa cells, analysed by mass spectrometry
binder,measurement,value
B1,binding,binds
